Laboratory results as given in paper PMC7819943, “Rice protein-binding microarrays: a tool to detect cis-acting elements near promoter regions in rice”.
Some of the results follow.

The chains behind the UniProt entries cited, without tags or fusion partners.
UniProt Q0JBA9, entry or part of it: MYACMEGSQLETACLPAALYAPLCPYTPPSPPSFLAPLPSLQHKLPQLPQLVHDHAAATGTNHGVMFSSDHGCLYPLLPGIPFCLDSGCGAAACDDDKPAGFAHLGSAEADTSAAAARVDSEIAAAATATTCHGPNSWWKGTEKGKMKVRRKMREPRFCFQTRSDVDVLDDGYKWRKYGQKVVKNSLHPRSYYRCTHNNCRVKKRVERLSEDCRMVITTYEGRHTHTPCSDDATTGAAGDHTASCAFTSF

Biological target: OsWRKY34 (Oryza sativa, UniProt Q0JBA9 1-250)
Experiment: protein-binding microarray (RPBM); PBS, 2% BSA, 51.3 ng/ul salmon testes DNA, 50 uM zinc acetate, 200 nM TF, 25 C, 1 h; high values mean tight binding
Conditions: protein: recombinant; tags: N-terminal polyhistidine and DsRed monomer fusion (pET32a); label: CyDye5-dUTP incorporated in the synthesized complementary strand; 3' TTTTT single-stranded linker to array surface; dsDNA, one strand shown
How it was run: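 Ni–NTA purification followed expression in E. coli BL21-CodonPlus of transcription factors fused N-terminally to a polyhistidine tag and DsRed. At 200 nM in PBS with 2% BSA, salmon testes DNA and 50 µM zinc acetate, the protein was incubated for 1 h at 25 °C with a custom Agilent array that had been primer-extended with Cy5-dUTP and blocked with 2% BSA. After washing, the array was read on an Axon 4000B scanner. The binding signal is per-feature fluorescence intensity in arbitrary units.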

Sequence | binding signal
TTTTGTCCCGGCAATTTTTCTGGGCATCCATGGCCACTGACGGAGTCACCTAGTGCAG | 8540 fluorescence intensity (a.u.)
GGTGGGTGAACGCGAGCGCTCGTCCATTAGCTTTTTCGAACGGAGTCACCTAGTGCAG | 8720 fluorescence intensity (a.u.)
CTCCGTCCGCCACCCTTGCTGTGTTTCTTTCAAAAAAAAACGGAGTCACCTAGTGCAG | 10800 fluorescence intensity (a.u.)
GGCCCAGCCCAGCACGGTCCACTACCTTGTCGCCGCGCGGCGGAGTCACCTAGTGCAG | 9120 fluorescence intensity (a.u.)
CATCGACCGTACTATTCGTGGCACGTCCACCAACAAATATCGGAGTCACCTAGTGCAG | 8740 fluorescence intensity (a.u.)
GGTAGTGATATTATGATAGAGGATCCTCACCCCTGTCTAACGGAGTCACCTAGTGCAG | 8250 fluorescence intensity (a.u.)
TTGGTCATATCTCCATCCGGGTTTGATTAAACTATATAAACGGAGTCACCTAGTGCAG | 8060 fluorescence intensity (a.u.)
GGGGCATCTGTTTCTGGTAATGGTGGAACACTATAATATCCGGAGTCACCTAGTGCAG | 10300 fluorescence intensity (a.u.)
ACTCCGTATTATCATGGTACATGCTCTATTCTCTCTGTATCGGAGTCACCTAGTGCAG | 8270 fluorescence intensity (a.u.)
TTTTATGTATGTCGTTTTCGCGTGGCTGCCCTCAACCAACCGGAGTCACCTAGTGCAG | 8280 fluorescence intensity (a.u.)
GTCTCTACCTCTCCCTTTCTCTCTCGATCTCTCCAGTCTCCGGAGTCACCTAGTGCAG | 8020 fluorescence intensity (a.u.)
TAACGTTTTATTACTGACATTTTTGTTACTTCTTGATTTACGGAGTCACCTAGTGCAG | 8840 fluorescence intensity (a.u.)
CAACTTAACCAAATTTACTGTACGTTGACCACCAGCTAGCCGGAGTCACCTAGTGCAG | 9210 fluorescence intensity (a.u.)
TCTTCATATCAAACAGTCCACTACTTGTGCATTCATATACCGGAGTCACCTAGTGCAG | 12500 fluorescence intensity (a.u.)
TCTTTTGAGCACCCCACTGGCCATGGTCTTTTATCGTCCCCGGAGTCACCTAGTGCAG | 8490 fluorescence intensity (a.u.)
ACATGACACATATCCGTCCATGCCCATAGCTGTCAAACGCCGGAGTCACCTAGTGCAG | 8180 fluorescence intensity (a.u.)
TGTTTCCGTCAGAATTTTGGTATGTTATCCGTGTTTGAATCGGAGTCACCTAGTGCAG | 9380 fluorescence intensity (a.u.)
ATTACAGCACTCATTCTTTATGGGTATTTGATTCCTATCTCGGAGTCACCTAGTGCAG | 8420 fluorescence intensity (a.u.)
CCTGTCTCGCCCGCAGCCACGCCGCCGCCTCGCCCTTTGCCGGAGTCACCTAGTGCAG | 9340 fluorescence intensity (a.u.)
AGCGAGTCATGACCTTTTTTTTTTCCCTCCAGCCCTAATCCGGAGTCACCTAGTGCAG | 8230 fluorescence intensity (a.u.)
CAGATCTTCTGCTACTCACAAGCTATGTTTTGTATACTGACGGAGTCACCTAGTGCAG | 9820 fluorescence intensity (a.u.)

2 consecutive records already listed, for reference:
Sequence | binding signal
TTGGTCATATCTCCATCCGGGTTTGATTAAACTATATAAACGGAGTCACCTAGTGCAG | 8060 fluorescence intensity (a.u.)
GGGGCATCTGTTTCTGGTAATGGTGGAACACTATAATATCCGGAGTCACCTAGTGCAG | 10300 fluorescence intensity (a.u.)

Further results

Sequence | binding signal
GAATACTGGTTTGACTTACTCTTGTTTCGTCGTCACGCGCCGGAGTCACCTAGTGCAG | 11300 fluorescence intensity (a.u.)
GGGATTTTGAATTTTTGGTTGCACTGTTTGACCACTCATCCGGAGTCACCTAGTGCAG | 12100 fluorescence intensity (a.u.)
ACGTGTGTTTTCTCCTTTAATTGACTACAAAAATCGATTCCGGAGTCACCTAGTGCAG | 10500 fluorescence intensity (a.u.)
TGAAATTTCCCAAGTCTTCGGCCACCAATAACACATCGCCCGGAGTCACCTAGTGCAG | 8040 fluorescence intensity (a.u.)
GTTCTTTCCATAGTAGTGTTTTTCCCTTTGTTTTCTCTTTCGGAGTCACCTAGTGCAG | 8310 fluorescence intensity (a.u.)
TTCTATAGTGGCCTTTTACATATCCATTTCGGGAATCATCCGGAGTCACCTAGTGCAG | 11900 fluorescence intensity (a.u.)
TCTCCTCCTCCCCACGCGGCCGCCACCACCGCGGCGCCACCGGAGTCACCTAGTGCAG | 8290 fluorescence intensity (a.u.)
CCGGTCCCGTCGTTCTCCACCCGCGGTCCGCCATCGACGCCGGAGTCACCTAGTGCAG | 9060 fluorescence intensity (a.u.)
CCTGTCCCTTGCACGCTACGAGCTCGATCTAGCAACCACTCGGAGTCACCTAGTGCAG | 9360 fluorescence intensity (a.u.)
TTAATCTGTACTATCATTCGCGACAATTTTTTTTTCAAAACGGAGTCACCTAGTGCAG | 8520 fluorescence intensity (a.u.)
AACCCGGTCTGACTTTTCATCAACTAGACCAAACTCTTTCCGGAGTCACCTAGTGCAG | 8680 fluorescence intensity (a.u.)
GATATATTTGTTTTGTATTAAAAATGTTGTTATACCTTTTCGGAGTCACCTAGTGCAG | 8380 fluorescence intensity (a.u.)
GAAGTGAATAGTAGAGGGTTTTGATGGGTTGGGAAGAGAACGGAGTCACCTAGTGCAG | 11200 fluorescence intensity (a.u.)
AAAAGGGGAAAATGTAGGGAGTGGGGAGGGAAAGTGCAAGCGGAGTCACCTAGTGCAG | 10300 fluorescence intensity (a.u.)
ATTTCTCTTGCCTATGTTTTCATTTTGCAATTATTTTTGTCGGAGTCACCTAGTGCAG | 10500 fluorescence intensity (a.u.)
AATTTTTCATCAAATTGTCATCTCTTTATGGAATAAGTCTCGGAGTCACCTAGTGCAG | 9850 fluorescence intensity (a.u.)
AGGAGAGAGAGAAGTAGTAGTAGTAGTATCCGAGAAAGCTCGGAGTCACCTAGTGCAG | 8100 fluorescence intensity (a.u.)
GTTGCCTCGTGTCACCCCGTCCCGTCGCCTTTAACTCCATCGGAGTCACCTAGTGCAG | 8280 fluorescence intensity (a.u.)
ACCTTCTTCATTTTGTTCATATATGTGCTCTGGTCCATATCGGAGTCACCTAGTGCAG | 13100 fluorescence intensity (a.u.)
GTGTGTGCATGCTGATAGCTTGGTCTCTTGAGGATAATTGCGGAGTCACCTAGTGCAG | 9730 fluorescence intensity (a.u.)
ACTTCTTTCATTTACAACATATCAGCTTGGTTTCCCATTTCGGAGTCACCTAGTGCAG | 8680 fluorescence intensity (a.u.)
